Reference: PubChem BioAssay AID248 (DTP/NCI, 2004)
The list shows only some results of the screen, not a fair sample: it gathers tests that were run many times, whatever their T/C, doses with no T/C, and many T/C values between a quarter and a half above the control. Further doses and runs are listed elsewhere. T/C: endpoint of the treated group in % of that of the vehicle group. Some entries give survivors of the animals treated and no T/C: the source files T/C as zero there, which appears to mark a toxic dose or a test without result, not a measured value. Some doses without a T/C left all or most animals alive at the check, yet need not have been tolerated: survival well below the control is almost never listed, so the zero probably covers shortened survival too. Survivors were counted at the toxicity check, usually on the fifth day, unless a day is given; later deaths do not show. Schedule codes are those of the source, taken here to give the interval after Q, in days (D) or hours (H), and the number of doses after X.

Tested on: L1210 leukemia ip in BDF1 mice, survival T/C
Test: NCI In Vivo Anticancer Drug Screen. Data for tumor model L1210 Leukemia (intraperitoneal) in B6D2F1 (BDF1) mice
Conditions: T/C endpoint: mean survival time, higher T/C = longer survival
[1] = dose: 400.0 mg/kg/injection, schedule: Q04DX002 (ip), vehicle: Klucel (hydroxypropylcellulose) (HPC)
[2] = dose: 400.0 mg/kg/injection, schedule: Q04DX003 (ip), vehicle: saline with Tween-80

For O=C1C(F)=C(N2CC2)C(=O)C(F)=C1N1CC1, the survivor count (dose: 12.5 mg/kg/injection, schedule: Q04DX003 (ip), vehicle: saline) was 3 of 6, the survivor count (dose: 21.0 mg/kg/injection, schedule: Q01DX009 (ip), vehicle: Klucel (hydroxypropylcellulose) (HPC)) was 1 of 6 and the survivor count (dose: 25.0 mg/kg/injection, schedule: Q04DX003 (ip), vehicle: saline) was 1 of 6. For the same compound, the survivor count (dose: 50.0 mg/kg/injection, schedule: Q04DX003 (ip), vehicle: saline) was 0 of 6 and the survivor count (dose: 100.0 mg/kg/injection, schedule: Q04DX003 (ip), vehicle: saline) was 0 of 6.

With COC(OC)c1nc(SC)[nH]c(=O)c1C[N+](C)(C)C the survivor count (dose: 400.0 mg/kg/injection, schedule: Q01DX009 (ip), vehicle: saline with Tween-80) was 0 of 6.

In the case of O=C1c2ccccc2C(=O)C2OC12 (stereo unspecified), the survivor count (dose: 100.0 mg/kg/injection, schedule: Q04DX002 (ip), vehicle: Klucel (hydroxypropylcellulose) (HPC)) was 3 of 3, the survivor count (dose: 200.0 mg/kg/injection, schedule: Q04DX002 (ip), vehicle: Klucel (hydroxypropylcellulose) (HPC)) was 0 of 3 and the survivor count [1] was 0 of 3.

With CCCCCCCCCCS(=O)(=O)CC(=O)O the survivor count (dose: 400.0 mg/kg/injection, schedule: Q04DX003 (ip), vehicle: Klucel (hydroxypropylcellulose) (HPC)) was 1 of 6 and the survivor count [2] was 0 of 6.

In the case of CSc1ccc(NC(=O)Nc2ccc(F)cc2)cc1, the survivor count (dose: 400.0 mg/kg/injection, schedule: Q01DX009 (ip), vehicle: Klucel (hydroxypropylcellulose) (HPC)) was 0 of 6.

NCC(OCCCc1ccccc1)C(Cl)(Cl)Cl (stereo unspecified) was tested, and the survivor count (dose: 100.0 mg/kg/injection, schedule: Q01DX009 (ip), vehicle: saline with Tween-80) was 1 of 6, the survivor count (dose: 100.0 mg/kg/injection, schedule: Q04DX003 (ip), vehicle: saline with Tween-80) was 5 of 6 and the survivor count (dose: 200.0 mg/kg/injection, schedule: Q04DX003 (ip), vehicle: saline with Tween-80) was 0 of 6. For the same compound, the survivor count [2] was 0 of 6.

With COc1cccc(CCCCO)c1 the survivor count (dose: 200.0 mg/kg/injection, schedule: Q01DX009 (ip), vehicle: saline with Tween-80) was 3 of 3.

O=C(O)/C(Br)=C\c1ccc(Br)o1 was tested, and the survivor count [1] was 1 of 3.

For O=C(O)C[P+](c1ccccc1)(c1ccccc1)c1ccccc1, the survivor count (dose: 200.0 mg/kg/injection, schedule: Q01DX001 (ip), vehicle: saline) was 0 of 4 and the survivor count (dose: 400.0 mg/kg/injection, schedule: Q01DX001 (ip), vehicle: saline) was 1 of 4.

COCBr was tested, and the survivor count (dose: 400.0 mg/kg/injection, schedule: Q01DX009 (ip), vehicle: saline) was 0 of 6.
